Experimental data taken from patent US20260256923.
Construct, isoform or probe ends are uncertain for at least one entry. Results from cells or extracts need not show a direct contact. A negative result means that nothing was seen under these conditions. For some of these results: A weaker result is weaker than the reference pair of the same experiment.

By UniProt entry, the sequences of proteins in these tests, tags left out. Where a name states a change or a piece, a line headed by the entry shows the natural chain unless it says otherwise. Residues count along the entry.
UniProt P19338, 2-710: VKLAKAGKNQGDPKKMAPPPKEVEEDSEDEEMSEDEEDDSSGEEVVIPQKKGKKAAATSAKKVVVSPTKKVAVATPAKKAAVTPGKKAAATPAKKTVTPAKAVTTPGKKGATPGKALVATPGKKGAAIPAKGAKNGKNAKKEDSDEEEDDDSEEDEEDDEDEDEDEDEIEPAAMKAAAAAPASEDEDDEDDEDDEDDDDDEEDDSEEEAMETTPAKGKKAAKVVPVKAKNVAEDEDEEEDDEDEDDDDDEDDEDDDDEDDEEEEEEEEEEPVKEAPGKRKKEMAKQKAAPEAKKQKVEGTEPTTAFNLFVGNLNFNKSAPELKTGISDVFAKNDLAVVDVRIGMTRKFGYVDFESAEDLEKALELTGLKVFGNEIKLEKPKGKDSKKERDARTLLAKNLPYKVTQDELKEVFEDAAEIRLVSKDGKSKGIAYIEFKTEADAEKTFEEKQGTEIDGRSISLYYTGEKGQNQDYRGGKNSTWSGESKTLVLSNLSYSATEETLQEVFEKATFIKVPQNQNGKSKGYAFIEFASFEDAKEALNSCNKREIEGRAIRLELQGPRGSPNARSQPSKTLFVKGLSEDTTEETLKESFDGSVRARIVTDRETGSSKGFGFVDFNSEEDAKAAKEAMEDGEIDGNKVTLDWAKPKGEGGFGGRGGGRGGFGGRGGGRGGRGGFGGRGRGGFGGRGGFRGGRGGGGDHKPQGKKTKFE
UniProt Q00987: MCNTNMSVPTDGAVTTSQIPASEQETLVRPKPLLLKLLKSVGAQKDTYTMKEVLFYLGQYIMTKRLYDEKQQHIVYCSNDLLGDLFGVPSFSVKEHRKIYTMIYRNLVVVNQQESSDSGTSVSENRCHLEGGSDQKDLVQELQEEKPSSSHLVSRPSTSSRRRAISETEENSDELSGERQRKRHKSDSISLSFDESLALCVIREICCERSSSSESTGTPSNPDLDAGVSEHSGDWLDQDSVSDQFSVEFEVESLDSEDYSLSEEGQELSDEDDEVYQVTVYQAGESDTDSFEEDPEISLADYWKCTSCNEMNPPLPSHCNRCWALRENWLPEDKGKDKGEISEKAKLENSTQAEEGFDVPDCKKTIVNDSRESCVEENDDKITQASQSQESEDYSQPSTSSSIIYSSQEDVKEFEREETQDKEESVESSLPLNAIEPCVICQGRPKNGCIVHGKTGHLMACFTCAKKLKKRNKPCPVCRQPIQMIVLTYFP

Tests used:
[1] = target: Nucleolin (NCL), endogenous (Homo sapiens) (UniProt P19338); experiment: pull-down; settings: HeLa lysate, protein in an extract, protein details: HeLa cell lysate, label: 5'-biotin, single-stranded DNA
[2] = target: MDM2, endogenous (Homo sapiens) (UniProt Q00987); experiment: pull-down; settings: HeLa lysate; protein in an extract; protein details: HeLa cell lysate; label: 5'-biotin; single-stranded DNA

Sequence | binding result ([1]; captured only at high concentration) | binding result [2] | binding result ([1]; 0-20 uM, 4 C)
AGATTAGGGTGAGGGTGA [iSN04] | binds more weakly | no binding | 
CCTCCTCCTCCTTCTCCTCCTCCTCC [CRO] |  | no binding | no binding
